By UniProt entry, the sequences of proteins in these tests, tags left out. Where a name states a change or a piece, a line headed by the entry shows the natural chain unless it says otherwise.
UniProt Q92754: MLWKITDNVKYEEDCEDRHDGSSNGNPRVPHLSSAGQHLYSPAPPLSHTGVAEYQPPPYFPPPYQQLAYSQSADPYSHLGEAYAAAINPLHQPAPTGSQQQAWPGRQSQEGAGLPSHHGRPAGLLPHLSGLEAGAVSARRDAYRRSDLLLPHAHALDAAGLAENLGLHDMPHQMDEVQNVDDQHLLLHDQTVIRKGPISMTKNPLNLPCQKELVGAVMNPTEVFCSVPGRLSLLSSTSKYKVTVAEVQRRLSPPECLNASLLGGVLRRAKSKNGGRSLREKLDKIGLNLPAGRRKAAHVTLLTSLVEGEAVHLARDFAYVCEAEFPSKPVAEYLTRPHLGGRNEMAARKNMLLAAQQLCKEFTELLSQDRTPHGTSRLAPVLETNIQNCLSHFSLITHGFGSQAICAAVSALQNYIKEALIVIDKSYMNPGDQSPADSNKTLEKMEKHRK

According to article PMC3759440:

Molecular target: TFAP2C (AP-2C, AP-2gamma) (UniProt Q92754)
Assay: competition with a labelled probe
Conditions: cold competitor vs 140 bp probe, competes more effectively than single-site fragments; protein translated in vitro

GGAGGCTTCAGGGTGACTTTGGGAGGAGTGGCTTCCAGAGGAGGAGCAGCTGGGAC (double strand) [ECM1_F2]
binding result: binds

The exact form of at least one protein or probe is not confirmed.
